Source: patent EP2392597B1
Positions count from the first letter of the chain named. Results are given in words; binding and its absence hold for the method and conditions named. Some results given as binding are weak or reduced against the parent protein; the word gives no strength.

By UniProt entry, the sequences of proteins in these tests, tags left out. Where a name states a change or a piece, a line headed by the entry shows the natural chain unless it says otherwise.
UniProt Q9NPF7: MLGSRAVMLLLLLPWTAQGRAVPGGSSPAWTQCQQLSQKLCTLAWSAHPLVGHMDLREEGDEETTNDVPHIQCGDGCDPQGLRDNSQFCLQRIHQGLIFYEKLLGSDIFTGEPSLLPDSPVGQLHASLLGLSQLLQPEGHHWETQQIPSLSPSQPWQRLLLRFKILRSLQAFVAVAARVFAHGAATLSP

B1: anti-IL-23p19 Fab/scFv cluster 119 (Fab, V domains shown)
VH: EVQLLESGGGLVQPGGSLRLSCAASGFTFSPYTMEWVRQAPGKGLEWVSSIYPSGGWTHYADSVKGRFTISRDNSKNTLYLQMNSLRAEDTAMYYCARARSACYDDWGQGTLVTVSS
VL: RHPMTQSPLSLSASVGDRVTVTCRASQSISTYLNWYQQKPGKAPKLLIYAASSLQSGVPSRFSGSGSGTDFTLTIRSLQPDDFATYYCQQSYSSPFTFGPGTKVDFK
B2: anti-IL-23p19 Fab/scFv cluster 120 (Fab, V domains shown)
VH: EVQLLESGGGLVQPGGSLRLSCAASGFTFSAYVMLWVRQAPGKGLEWVSYIWPSGGETKYADSVKGRFTISRDNSKNTLYLQMNSLRAEDTAVYYCARSMGYGDAFDIWGQGTMVTVSS
VL: DIQMTQSPSSLPVTPGEPASISCRSSQSLLHTNGHNYLDWYLQKPGQSPKLLIYLGSNRASGVPDRFSGSGSGTDFTLKISRVEAEDVGLYYCMQGLQIPLTFGGGTKVEIK
B3: anti-IL-23p19 Fab/scFv cluster 121 (Fab, V domains shown)
VH: EVQLLESGGGLVQPGGSLRLSCAASGFTFSGYDMSWVRQAPGKGLEWVSSIWSSGGYTKYADSVKGRFTISRDNSKNTLYLQMNSLRAEDTAVYYCARQGVGGSGSLLYWGQGTLVTVSS
VL: DIQMTQSPSSLSASVGDRVTITCRSSQGVRYDLGWYQQKPGKAPKLLIYGAFNLQGGVPSRFSGSGSGTDFTLTISGLQPEDFATYYCLQDFQYPFTFGPGTKVDVK
B4: anti-IL-23p19 Fab/scFv cluster 122 (Fab, V domains shown)
VH: EVQLLESGGGLVQPGGSLRLSCAASGFTFSDYSMLWVRQAPGKGLEWVSYISSSGGPTKYADSVKGRFTISRDNSKNTLYLQMNSLRAEDTAMYYCARRHYNKRYFDYWGQGTLVTVSS
VL: DIQMTQSPSSLSASVGDRVTVTCRASQSISSYLNWYQQKPGKAPDLLIYAASSLQSGVPSRFSGSGSGTDFTLTISSLQPEDFVTYYCQETYSALTFGGGTKVEIK
B5: anti-IL-23p19 Fab/scFv cluster 123 (Fab, V domains shown)
VH: EVQLLESGGGLVQPGGSLRLSCAASGFTFSRYNMVWVRQAPGKGLEWVSSISSSGGFTRYADSVKGRFTISRDNSKNTLYLQMNSLRAEDTAVYYCARWYSSSWYGNWFDPWGQGTLVTVSS
VL: QSALTQPPSVSVSPGQTASITCSGDNLGDKYASWYQQKPGQSPVLVIYQDNKRPSGIPERFSGSNSGNTATLTLSRVEAGDEADYYCQVWDSSYNWVFGGGTKLTVL
B6: anti-IL-23p19 Fab/scFv cluster 124 (Fab, V domains shown)
VH: EVQLLESGGGLVQPGGSLRLSCAASGFTFSKYWMAWVRQAPGKGLEWVSYISPSGGWTRYADSVKGRFTISRDNSKNTLYLQMNSLRAEDTAVYYCARVGGSYSLGALDIWGQGTMVTVSS
VL: DIQMTQSPGTLSLSPGERATLSCRASQSVSSYLAWYQQKPGQAPRLLIFDASNRATGIPARFSGAGSGTDFTLTISSLEPEDFAVYYCQQRSNWPWTFGQGTKVEIK
B7: anti-IL-23p19 Fab/scFv cluster 126 (Fab, V domains shown)
VH: EVQLLESGGGLVQPGGSLRLSCAASGFTFSAYPMRWVRQAPGKGLEWVSYIYPSGGPTYYADSVKGRFTISRDNSKNTLYLQMNSLRAEDTAVYYCAQGVGAPVDSWGQGTLVTVSS
VL: QSELTQPPSASGIPGQRVTISCSGSHSNIGRNYVYWYQQLPGTAPKLLIYSNNERPAGVPDRFSGSKSGTSASLAISGLRSEDEVDYYCATWDDSLSGPVFGGGTKLTVL
B8: anti-IL-23p19 Fab/scFv cluster 127 (Fab, V domains shown)
VH: EVQLLESGGGLVQPGGSLRLSCAASGFTFSWYGTAWVRQAPGKGLEWVSVISPSGGPTFYADSVKGRFTISRDNSKNTLYLQMNSLRAEDMAVYYCARDSSGWRTAYYFDYWGQGTLVTVSS
VL: B7 VL with A75D, I76V, R80Q, V85A, T91S, S97I, G98A, P99W, K106M
B9: anti-IL-23p19 Fab/scFv cluster 128 (Fab, V domains shown)
VH: EVQLLESGGGLVQPGGSLRLSCAASGFTFSTYGMEWVRQAPGKGLEWVSSISPSGGYTGYADSVKGRFTISRDNSKNTLYLQMNSLRAEDTAVYYCAKDSLYSSSLDAFDIWGQGTMVTVSS
VL: QSALTQPPSASGTPGQRVTISCSGGYSNMGSNYAHWYQQLPGTAPKLLIYNNNQRPSGVPDRFSGSKSGTSASLAISGLRSEDEADYYCAAWDDSLSGPVFGGGTKLTVL
B10: anti-IL-23p19 Fab/scFv cluster 129 (Fab, V domains shown)
VH: EVQLLESGGGLVQPGGSLRLSCAASGFTFSSYDMIWVRQAPGKGLEWVSRIVPSGGLTGYADSVKGRFTISRDNSKNTLYLQMNSLRAEDTAVYYCARYSLWLGADYWGQGTLVTVSS
VL: DIQMTQSPSSLSASVGDRVAITCRASQSIDTYLNWYQQKPGKAPKLLIYAASKLEDGVPSRFSGSGTGTDFTLTIRSLQPEDFASYFCQQSYSSPGITFGPGTKVEIK
B11: anti-IL-23p19 Fab/scFv cluster 130 (Fab, V domains shown)
VH: EVQLLESGGGLVQPGGSLRLSCAASGFTFSYYGMGWVRQAPGKGLEWVSGIWPSGGPTYYADSVKGRFTISRDNSKNTLYLQMNSLRAEDTAMYYCAKYTGSRTRVFDYWGQGTLVTVSS
VL: DIQMTQSPSTLSASVGDRVTLTCRASQSISRYLAWYQQKPGKAPKLLIYKASSLVSGFPSRFSGSGSGTEFTLTISSLQPDDSATYYCQQYNDYPGTFGQGTKLEIK
B12: anti-IL-23p19 Fab/scFv cluster 131 (Fab, V domains shown)
VH: EVQLLESGGGLVQPGGSLRLSCAASGFTFSYYEMVWVRQAPGKGLEWVSRIWPSGGYTRYADSVKGRFTISRDNSKNTLYLQMNSLRAEDTAVYYCARGVLTDPGAFDIWGQGTMVTVSS
VL: DIQMTQSPSFLSASVGDRVTITCRASQGFGSYLAWYQQKPGKAPKLLIYAASTLQSGVPSRFSGSGSGTEFTLTISSLQPEDFATYYCQHLNSFRFTFGPGTKVDIK
B13: anti-IL-23p19 Fab/scFv cluster 132 (Fab, V domains shown)
VH: EVQLLESGGGLVQPGGSLRLSCAASGFTFSYYEMVWVRQAPGKGLEWVSRIWPSGGYTRYADSVKGRFTISRDNSKNTLYLQMNSLRAEDTAVYYCARGGYDYVWGSYRPYYFDYWGQGTLVTVSS
VL: DIQMTQSPSSLSASVGDRVTITCRASQNINFYLSWFQQKPGKAPKLLIHSVNNLLGPVPSRFSGSGSGTDFTLTIVSLQPEDFATYYCQQGYRPPYTFGQGTKLEIK
B14: anti-IL-23p19 Fab/scFv cluster 134 (Fab, V domains shown)
VH: EVQLLESGGGLVQPGGSLRLSCAASGFTFSTYRMVWVRQAPGKGLEWVSSIYPSGGHTGYADSVKGRFTISRDNSKNTLYLQMNSLRAEDTAVYYCARDEGSNWYSNWFDPWGQGTLVTVSS
VL: QSVLTQPPSVSVTPGQTAILSCSGDKLGDTYASWFQQKPGQSPVMVMYRGNKRPSGIPERFSGSSSGNTATLTISGTQAVDEADYYCQAWDRTTGVFGTGTRLTVL
B15: anti-IL-23p19 Fab/scFv cluster 136 (Fab, V domains shown)
VH: EVQLLESGGGLVQPGGSLRLSCAASGFTFSSYGMGWVRQAPGKGLEWVSWIYPSGGHTIYADSVKGRFTISRDNSKNTLYLQMNSLRAEDTATYYCAKDRRNYGSYFDYWGQGTLVTVSS
VL: B10 VL
B16: anti-IL-23p19 Fab/scFv cluster 137 (Fab, V domains shown)
VH: EVQLLESGGGLVQPGGSLRLSCAASGFTFSFYWMGWVRQAPGKGLEWVSSISSSGGKTQYADSVKGRFTISRDNSKNTLYLQMNSLRAEDTAVYYCATGIAVARYWGQGTLVTVSS
VL: QSALTQPASVSGSPGQSITISCTGTSSDVGGYNYVSWYQQHPGKAPKLMIYEVSNRPSGVSNRFSGSKSGNTASLTISGLQAEDEADYYCSSYASSGARVFGTGTKVTVL
B17: anti-IL-23p19 Fab/scFv cluster 138 (Fab, V domains shown)
VH: EVQLLESGGGLVQPGGSLRLSCAASGFTFSQYGMRWVRQAPGKGLEWVSSIGPSGGFTRYADSVKGRFTISRDNSKNTFYLQMNSLRAEDTAVYYCARSGSTWYFDLWGRGTLVTVSS
VL: DIVMTQTPPSLPVNPGEPASISCRSSQSLQHSNGYNYVAWYLQKPGQSPQLLIYLGSNRASGVPDRFSGSGSGTDFKLKISRVEAEDVGDYFCMQLLETPLTFGGGTKVEIK
B18: anti-IL-23p19 Fab/scFv cluster 139 (Fab, V domains shown)
VH: EVQLLESGGGLVQPGGSLRLSCAASGFTFSKYDMDWVRQAPGKGLEWVSSISSSGGLTFYADSVKGRFTISRDNSKNTLYLQMNSLRAEDTAVYYCARHDYDFWSGHAFDIWGQGTMVTVSS
VL: DIQMTQSPSSLSASVGDRVTITCRASQGISNYLAWYQQKPGKVPKLLIYGASTVQSGVPSRFSGSGSGTDFTLTISSLQPEDVATYYCQKYNRVPWTFGQGTKVEIK
B19: anti-IL-23p19 Fab/scFv cluster 140 (Fab, V domains shown)
VH: EVQLLESGGGLVQPGGSLRLSCAASGFTFSKYGMNWVRQAPGKGLEWVSGIVSSGGQTPYADSVKGRFTISRDNSKNTLYLQMNSLRAEDTAVYYCARGVRGYGDYWYFDLWGRGTLVTVSS
VL: DIQMTQSPLSLPVTPGEPASISCRSSQSLLHRNGYNYLDWYVQRPGQSPQLLIYLGSNRASGVPDRFSGSGSGTDFTLRISRVEAEDVGVYYCMEALQTPPTFGGGTKVEIK
B20: anti-IL-23p19 Fab/scFv cluster 143 (Fab, V domains shown)
VH: EVQLLESGGGLVQPGGSLRLSCAASGFTFSGYAMGWVRQAPGKGLEWVSYIGPSGGWTRYADSVKGRFTISRDNSKNTLYLQMNSLRAEDTAVYYCARHWVSDPFDYWGQGTLVTVSS
VL: DIQMTQSPSSLSASVGDRVTITCRASQGISNYLAWYQQRPGKAPKLLIYAASSLQSGVPSRFSGSGSGTDFTLTISSLQPGDFATYYCQQSYSIPYTFGQGTKLEIK
B21: anti-IL-23p19 Fab/scFv cluster 144 (Fab, V domains shown)
VH: EVQLLESGGGLVQPGGSLRLSCAASGFTFSLYNMTWVRQAPGKGLEWVSSIGPSGGDTKYADSVKGRFTISRDNSKNTLYLQMNSLRAEDTAVYYCARVMGYYYYYYGMDVWGQGTTVTVSS
VL: DIQMTQSPLSLPVTPGEPASISCRSSQSLLDSNGYNHLDWYVQKPGQSPQLLIYLGSNRASGVPDRFSGSGSGTHFTLKISTVEAEDVGVYYCMQSLHTPQAFGQGTKVEIK
B22: anti-IL-23p19 Fab/scFv cluster 145 (Fab, V domains shown)
VH: EVQLLESGGGLVQPGGSLRLSCAASGFTFSYYWMDWVRQAPGKGLEWVSRIYPSGGMTWYADSVKGRFTISRDNSKNTLYLQMNSLRAEDTAVYYCARGRLNGYFDLWGRGTLVTVSS
VL: DIQMTQSPVTLSVSPGERATLSCRSSQPILNNLAWYQHKPGQAPRLLIYGASTRATGIPARFSGSGSGTDFTLTISSLQSEDFAVYYCQQYNNWITFGQGTRLDIK

target: human p19 subunit of IL-23 (human) (UniProt Q9NPF7); test: phage display screening

binding, binds:
B1
B2
B3
B4
B5
B6
B7
B8
B9
B10
B11
B12
B13
B14
B15
B16
B17
B18
B19
B20
B21
B22
